The target of the assay is Recombinant Human TNF-α/TNFSF1A (human). The assay can be described thus: SPR (Biacore).

Results are given in words; binding and its absence hold for the method and conditions named. Binding calls can cover weak binding; strength is not graded here.

B1: AB262 (antibody, V domains shown)
VH: EVQLVESGGGLVQPGGSLRLSCAASGFTLSDYGVNWVRQAPGKGLEWVSMIWGDGSTDYDSTLKSRFTISKDNSKNTLYLQMNSLRAEDTAVYYCAREWHHGPVAYWGQGTLVTVSS
VL: EIVMTQSPATLSLSPGERATLSCKASQAVSSAVAWYQQKPGQAPRLLIYWASTRHTGIPARFSGSGSGTDFTLTISSLQPEDFAVYYCQQHYSTPFTFGQGTKLEIK
notes: also called hMAK195VH.2b / hMAK195VL.2
As for B1, the binding entry was “binds”.

B2: AB254 (antibody, V domains shown)
VH: EVQLVESGGGLVQPGGSLRLSCAASGFTFSDYGVNWVRQAPGKGLEWVSMIWGDGSTDYDSTLKSRFTISRDNSKNTLYLQMNSLRAEDTAVYYCAREWHHGPVAYWGQGTLVTVSS
VL: EIVMTQSPATLSLSPGERATLSCKASQAVSSAVAWYQQKPGQAPRLLIYWASTRHTGIPARFSGSGSGTDFTLTISSLQPEDFAVYYCQQHYSTPFTFGQGTKLEIK
notes: also called hMAK195VH.2 / hMAK195VL.2
Regarding B2, the binding result was “binds”.

B3: AB258 (antibody, V domains shown)
VH: EVQLVESGGGLVQPGGSLRLSCAVSGFTLSDYGVNWVRQAPGKGLEWLGMIWGDGSTDYDSTLKSRLTISKDNSKSTIYLQMNSLRAEDTAVYYCAREWHHGPVAYWGQGTLVTVSS
VL: EIVMTQSPATLSLSPGERATLSCKASQAVSSAVAWYQQKPGQAPRLLIYWASTRHTGIPARFSGSGSGTDFTLTISSLQPEDFAVYYCQQHYSTPFTFGQGTKLEIK
notes: also called hMAK195VH.2a / hMAK195VL.2
For B3, the binding result is recorded as “binds”.

B4: AB255 (antibody, V domains shown)
VH: EVQLVESGGGLVQPGGSLRLSCAASGFTFSDYGVNWVRQAPGKGLEWVSMIWGDGSTDYDSTLKSRFTISRDNSKNTLYLQMNSLRAEDTAVYYCAREWHHGPVAYWGQGTLVTVSS
VL: EIVMTQSPATLSLSPGERATLSCKASQAVSSAVAWYQQKPGQSPRLLIYWASTRHTGVPARFSGSGSGTDFTLTISSLQPEDFAVYYCQQHYSTPFTFGQGTKLEIK
notes: also called hMAK195VH.2 / hMAK195VL.2a
As to B4, the binding result is listed as “binds”.

B5: AB248 (antibody, V domains shown)
VH: EVQLQESGPGLVKPSETLSLTCTVSGFSLSDYGVNWIRQPPGKGLEWIGMIWGDGSTDYDSTLKSRVTISKDTSKNQFSLKLSSVTAADTAVYYCAREWHHGPVAYWGQGTLVTVSS
VL: DIQMTQSPSSLSASVGDRVTITCKASQAVSSAVAWYQQKPGKAPKLLIYWASTRHTGVPSRFSGSGSGTDFTLTISSLQPEDFATYYCQQHYSTPFTFGQGTKLEIK
notes: also called hMAK195VH.1b / hMAK195VL.1
With B5, the binding entry is on record as “binds”.

B6: AB260 (antibody, V domains shown)
VH: EVQLVESGGGLVQPGGSLRLSCAASGFTLSDYGVNWVRQAPGKGLEWVSMIWGDGSTDYDSTLKSRFTISKDNSKNTLYLQMNSLRAEDTAVYYCAREWHHGPVAYWGQGTLVTVSS
VL: DIQMTQSPSSLSASVGDRVTITCKASQAVSSAVAWYQQKPGKAPKLLIYWASTRHTGVPSRFSGSGSGTDFTLTISSLQPEDFATYYCQQHYSTPFTFGQGTKLEIK
notes: also called hMAK195VH.2b / hMAK195VL.1
Take B6: the binding entry is “binds”.

B7: AB250 (antibody, V domains shown)
VH: EVQLQESGPGLVKPSETLSLTCTVSGFSLSDYGVNWIRQPPGKGLEWIGMIWGDGSTDYDSTLKSRVTISKDTSKNQFSLKLSSVTAADTAVYYCAREWHHGPVAYWGQGTLVTVSS
VL: EIVMTQSPATLSLSPGERATLSCKASQAVSSAVAWYQQKPGQAPRLLIYWASTRHTGIPARFSGSGSGTDFTLTISSLQPEDFAVYYCQQHYSTPFTFGQGTKLEIK
notes: also called hMAK195VH.1b / hMAK195VL.2
Regarding B7, the binding result was “binds”.

B8: AB242 (antibody, V domains shown)
VH: EVQLQESGPGLVKPSETLSLTCTVSGGSISDYGVNWIRQPPGKGLEWIGMIWGDGSTDYDSTLKSRVTISVDTSKNQFSLKLSSVTAADTAVYYCAREWHHGPVAYWGQGTLVTVSS
VL: EIVMTQSPATLSLSPGERATLSCKASQAVSSAVAWYQQKPGQAPRLLIYWASTRHTGIPARFSGSGSGTDFTLTISSLQPEDFAVYYCQQHYSTPFTFGQGTKLEIK
notes: also called hMAK195VH.1 / hMAK195VL.2
For the molecule B8, the binding result was “binds”.

B9: AB246 (antibody, V domains shown)
VH: EVQLQESGPGLVKPSETLSLTCTVSGFSLSDYGVNWVRQPPGKGLEWLGMIWGDGSTDYDSTLKSRLTISKDNSKSQISLKLSSVTAADTAVYYCAREWHHGPVAYWGQGTLVTVSS
VL: EIVMTQSPATLSLSPGERATLSCKASQAVSSAVAWYQQKPGQAPRLLIYWASTRHTGIPARFSGSGSGTDFTLTISSLQPEDFAVYYCQQHYSTPFTFGQGTKLEIK
notes: also called hMAK195VH.1a / hMAK195VL.2
Take B9: the binding result was “binds”.

B10: AB249 (antibody, V domains shown)
VH: EVQLQESGPGLVKPSETLSLTCTVSGFSLSDYGVNWIRQPPGKGLEWIGMIWGDGSTDYDSTLKSRVTISKDTSKNQFSLKLSSVTAADTAVYYCAREWHHGPVAYWGQGTLVTVSS
VL: DIQMTQSPSSLSASVGDRVTITCKASQAVSSAVAWYQQKPGKSPKLLIYWASTRHTGVPSRFSGSGSGTDFTLTISSLQPEDFATYYCQQHYSTPFTFGQGTKLEIK
notes: also called A3249; hMAK195VH.1b / hMAK195VL.1a
Consider B10, for which the binding entry is reported as “binds”.

B11: AB241 (antibody, V domains shown)
VH: EVQLQESGPGLVKPSETLSLTCTVSGGSISDYGVNWIRQPPGKGLEWIGMIWGDGSTDYDSTLKSRVTISVDTSKNQFSLKLSSVTAADTAVYYCAREWHHGPVAYWGQGTLVTVSS
VL: DIQMTQSPSSLSASVGDRVTITCKASQAVSSAVAWYQQKPGKSPKLLIYWASTRHTGVPSRFSGSGSGTDFTLTISSLQPEDFATYYCQQHYSTPFTFGQGTKLEIK
notes: also called hMAK195VH.1 / hMAK195VL.1a
As for B11, the binding entry is recorded as “binds”.

B12: AB251 (antibody, V domains shown)
VH: EVQLQESGPGLVKPSETLSLTCTVSGFSLSDYGVNWIRQPPGKGLEWIGMIWGDGSTDYDSTLKSRVTISKDTSKNQFSLKLSSVTAADTAVYYCAREWHHGPVAYWGQGTLVTVSS
VL: EIVMTQSPATLSLSPGERATLSCKASQAVSSAVAWYQQKPGQSPRLLIYWASTRHTGVPARFSGSGSGTDFTLTISSLQPEDFAVYYCQQHYSTPFTFGQGTKLEIK
notes: also called hMAK195VH.1b / hMAK195VL.2a
Turning to B12, the binding entry is “binds”.

B13: AB252 (antibody, V domains shown)
VH: EVQLVESGGGLVQPGGSLRLSCAASGFTFSDYGVNWVRQAPGKGLEWVSMIWGDGSTDYDSTLKSRFTISRDNSKNTLYLQMNSLRAEDTAVYYCAREWHHGPVAYWGQGTLVTVSS
VL: DIQMTQSPSSLSASVGDRVTITCKASQAVSSAVAWYQQKPGKAPKLLIYWASTRHTGVPSRFSGSGSGTDFTLTISSLQPEDFATYYCQQHYSTPFTFGQGTKLEIK
notes: also called hMAK195VH.2 / hMAK195VL.1
Turning to B13, the binding result is “binds”.

B14: AB261 (antibody, V domains shown)
VH: EVQLVESGGGLVQPGGSLRLSCAASGFTLSDYGVNWVRQAPGKGLEWVSMIWGDGSTDYDSTLKSRFTISKDNSKNTLYLQMNSLRAEDTAVYYCAREWHHGPVAYWGQGTLVTVSS
VL: DIQMTQSPSSLSASVGDRVTITCKASQAVSSAVAWYQQKPGKSPKLLIYWASTRHTGVPSRFSGSGSGTDFTLTISSLQPEDFATYYCQQHYSTPFTFGQGTKLEIK
notes: also called hMAK195VH.2b / hMAK195VL.1a
B14: the binding entry is on record as “binds”.

B15: AB247 (antibody, V domains shown)
VH: EVQLQESGPGLVKPSETLSLTCTVSGFSLSDYGVNWVRQPPGKGLEWLGMIWGDGSTDYDSTLKSRLTISKDNSKSQISLKLSSVTAADTAVYYCAREWHHGPVAYWGQGTLVTVSS
VL: EIVMTQSPATLSLSPGERATLSCKASQAVSSAVAWYQQKPGQSPRLLIYWASTRHTGVPARFSGSGSGTDFTLTISSLQPEDFAVYYCQQHYSTPFTFGQGTKLEIK
notes: also called hMAK195VH.1a / hMAK195VL.2a
With B15, the binding entry is “binds”.

B16: AB244 (antibody, V domains shown)
VH: EVQLQESGPGLVKPSETLSLTCTVSGFSLSDYGVNWVRQPPGKGLEWLGMIWGDGSTDYDSTLKSRLTISKDNSKSQISLKLSSVTAADTAVYYCAREWHHGPVAYWGQGTLVTVSS
VL: DIQMTQSPSSLSASVGDRVTITCKASQAVSSAVAWYQQKPGKAPKLLIYWASTRHTGVPSRFSGSGSGTDFTLTISSLQPEDFATYYCQQHYSTPFTFGQGTKLEIK
notes: also called hMAK195VH.1a / hMAK195VL.1
For the molecule B16, the binding entry is on record as “binds”.

B17: AB257 (antibody, V domains shown)
VH: EVQLVESGGGLVQPGGSLRLSCAVSGFTLSDYGVNWVRQAPGKGLEWLGMIWGDGSTDYDSTLKSRLTISKDNSKSTIYLQMNSLRAEDTAVYYCAREWHHGPVAYWGQGTLVTVSS
VL: DIQMTQSPSSLSASVGDRVTITCKASQAVSSAVAWYQQKPGKSPKLLIYWASTRHTGVPSRFSGSGSGTDFTLTISSLQPEDFATYYCQQHYSTPFTFGQGTKLEIK
notes: also called hMAK195VH.2a / hMAK195VL.1a
As to B17, the binding result is “binds”.

B18: AB245 (antibody, V domains shown)
VH: EVQLQESGPGLVKPSETLSLTCTVSGFSLSDYGVNWVRQPPGKGLEWLGMIWGDGSTDYDSTLKSRLTISKDNSKSQISLKLSSVTAADTAVYYCAREWHHGPVAYWGQGTLVTVSS
VL: DIQMTQSPSSLSASVGDRVTITCKASQAVSSAVAWYQQKPGKSPKLLIYWASTRHTGVPSRFSGSGSGTDFTLTISSLQPEDFATYYCQQHYSTPFTFGQGTKLEIK
notes: also called hMAK195VH.1a / hMAK195VL.1a
B18: the binding entry was “binds”.

B19: AB253 (antibody, V domains shown)
VH: EVQLVESGGGLVQPGGSLRLSCAASGFTFSDYGVNWVRQAPGKGLEWVSMIWGDGSTDYDSTLKSRFTISRDNSKNTLYLQMNSLRAEDTAVYYCAREWHHGPVAYWGQGTLVTVSS
VL: DIQMTQSPSSLSASVGDRVTITCKASQAVSSAVAWYQQKPGKSPKLLIYWASTRHTGVPSRFSGSGSGTDFTLTISSLQPEDFATYYCQQHYSTPFTFGQGTKLEIK
notes: also called hMAK195VH.2 / hMAK195VL.1a
In the case of B19, the binding entry is given as “binds”.

B20: AB256 (antibody, V domains shown)
VH: EVQLVESGGGLVQPGGSLRLSCAVSGFTLSDYGVNWVRQAPGKGLEWLGMIWGDGSTDYDSTLKSRLTISKDNSKSTIYLQMNSLRAEDTAVYYCAREWHHGPVAYWGQGTLVTVSS
VL: DIQMTQSPSSLSASVGDRVTITCKASQAVSSAVAWYQQKPGKAPKLLIYWASTRHTGVPSRFSGSGSGTDFTLTISSLQPEDFATYYCQQHYSTPFTFGQGTKLEIK
notes: also called hMAK195VH.2a / hMAK195VL.1
With B20, the binding result is “binds”.

B21: AB243 (antibody, V domains shown)
VH: EVQLQESGPGLVKPSETLSLTCTVSGGSISDYGVNWIRQPPGKGLEWIGMIWGDGSTDYDSTLKSRVTISVDTSKNQFSLKLSSVTAADTAVYYCAREWHHGPVAYWGQGTLVTVSS
VL: EIVMTQSPATLSLSPGERATLSCKASQAVSSAVAWYQQKPGQSPRLLIYWASTRHTGVPARFSGSGSGTDFTLTISSLQPEDFAVYYCQQHYSTPFTFGQGTKLEIK
notes: also called hMAK195VH.1 / hMAK195VL.2a
On to B21, for which the binding entry is on record as “binds”.

B22: AB240 (antibody, V domains shown)
VH: EVQLQESGPGLVKPSETLSLTCTVSGGSISDYGVNWIRQPPGKGLEWIGMIWGDGSTDYDSTLKSRVTISVDTSKNQFSLKLSSVTAADTAVYYCAREWHHGPVAYWGQGTLVTVSS
VL: DIQMTQSPSSLSASVGDRVTITCKASQAVSSAVAWYQQKPGKAPKLLIYWASTRHTGVPSRFSGSGSGTDFTLTISSLQPEDFATYYCQQHYSTPFTFGQGTKLEIK
notes: also called hMAK195VH.1 / hMAK195VL.1
As to B22, the binding result is reported as “binds”.

(Values after patent publication US20110250130A1 (AbbVie / Abbott, published 2011).)
